This is one part of the list.
Columns and labels:
Test in all cases: log2 fold change, soluble protein after heating vs DMSO (PISA); higher = thermal stabilisation; K562 cells, 10 uM, 30 min; active = over 0.2 and 3.5 SD of the protein, either way, in both replicates (recomputed)
[1] = compound: CC1=C(C=C(C=C1)NC(=O)C2=CC(=CC=C2)C(C)(C)C#N)NC3=CC4=C(C=C3)N=CN(C4=O)C
How it was run: (§1)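 Aliquots of K562 cells (2×10^6 cells/mL) treated with 10 μM compound for 30 min were heated for 3 min over 48°C-58°C. After pooling and extraction in PBS with 0.5% NP-40 at 4°C, soluble protein from a 21,000xg, 90 min spin was quantified by TMTpro 16plex LC-MS/MS with channel sums equalised. Thermal stability is expressed against control samples, from duplicates, as a log2 fold change.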

Amino acid sequences for entries named in this document (tags omitted). A change or cut given only in a name is not applied to a line headed by its entry.
UniProt Q13148, whole entry, looked up: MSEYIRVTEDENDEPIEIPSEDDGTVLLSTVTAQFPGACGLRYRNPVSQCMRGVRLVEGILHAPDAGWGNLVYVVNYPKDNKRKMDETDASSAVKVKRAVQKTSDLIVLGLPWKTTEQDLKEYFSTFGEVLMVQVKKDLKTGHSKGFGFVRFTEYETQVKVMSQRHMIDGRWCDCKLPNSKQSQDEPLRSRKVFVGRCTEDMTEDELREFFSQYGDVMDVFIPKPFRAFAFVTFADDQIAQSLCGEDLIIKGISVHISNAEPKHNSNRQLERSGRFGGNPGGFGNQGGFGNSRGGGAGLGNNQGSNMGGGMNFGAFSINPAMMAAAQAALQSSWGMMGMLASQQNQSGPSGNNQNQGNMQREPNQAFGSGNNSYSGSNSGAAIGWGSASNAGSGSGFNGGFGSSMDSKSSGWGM
UniProt O95926: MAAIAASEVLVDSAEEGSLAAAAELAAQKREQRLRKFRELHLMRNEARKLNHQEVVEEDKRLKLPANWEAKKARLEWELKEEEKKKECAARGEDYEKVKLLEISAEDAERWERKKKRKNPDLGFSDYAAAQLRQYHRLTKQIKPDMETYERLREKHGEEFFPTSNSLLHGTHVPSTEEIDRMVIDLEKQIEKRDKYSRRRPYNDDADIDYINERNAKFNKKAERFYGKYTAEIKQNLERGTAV
UniProt O60506: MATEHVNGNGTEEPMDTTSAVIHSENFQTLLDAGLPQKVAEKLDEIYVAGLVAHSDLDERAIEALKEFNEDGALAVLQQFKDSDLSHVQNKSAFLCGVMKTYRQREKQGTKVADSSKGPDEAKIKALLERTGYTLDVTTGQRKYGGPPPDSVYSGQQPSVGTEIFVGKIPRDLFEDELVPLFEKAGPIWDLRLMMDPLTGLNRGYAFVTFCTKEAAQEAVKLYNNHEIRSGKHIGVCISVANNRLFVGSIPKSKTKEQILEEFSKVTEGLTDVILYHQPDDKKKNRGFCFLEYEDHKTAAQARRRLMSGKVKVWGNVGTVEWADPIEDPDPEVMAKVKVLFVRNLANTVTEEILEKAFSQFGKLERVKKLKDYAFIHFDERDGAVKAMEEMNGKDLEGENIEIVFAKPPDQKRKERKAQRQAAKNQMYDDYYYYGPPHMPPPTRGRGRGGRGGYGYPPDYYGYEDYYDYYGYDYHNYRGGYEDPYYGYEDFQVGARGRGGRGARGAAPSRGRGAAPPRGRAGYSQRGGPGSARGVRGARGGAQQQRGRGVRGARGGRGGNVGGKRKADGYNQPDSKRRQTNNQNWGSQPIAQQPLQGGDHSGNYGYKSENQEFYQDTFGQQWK
UniProt Q9NRL3: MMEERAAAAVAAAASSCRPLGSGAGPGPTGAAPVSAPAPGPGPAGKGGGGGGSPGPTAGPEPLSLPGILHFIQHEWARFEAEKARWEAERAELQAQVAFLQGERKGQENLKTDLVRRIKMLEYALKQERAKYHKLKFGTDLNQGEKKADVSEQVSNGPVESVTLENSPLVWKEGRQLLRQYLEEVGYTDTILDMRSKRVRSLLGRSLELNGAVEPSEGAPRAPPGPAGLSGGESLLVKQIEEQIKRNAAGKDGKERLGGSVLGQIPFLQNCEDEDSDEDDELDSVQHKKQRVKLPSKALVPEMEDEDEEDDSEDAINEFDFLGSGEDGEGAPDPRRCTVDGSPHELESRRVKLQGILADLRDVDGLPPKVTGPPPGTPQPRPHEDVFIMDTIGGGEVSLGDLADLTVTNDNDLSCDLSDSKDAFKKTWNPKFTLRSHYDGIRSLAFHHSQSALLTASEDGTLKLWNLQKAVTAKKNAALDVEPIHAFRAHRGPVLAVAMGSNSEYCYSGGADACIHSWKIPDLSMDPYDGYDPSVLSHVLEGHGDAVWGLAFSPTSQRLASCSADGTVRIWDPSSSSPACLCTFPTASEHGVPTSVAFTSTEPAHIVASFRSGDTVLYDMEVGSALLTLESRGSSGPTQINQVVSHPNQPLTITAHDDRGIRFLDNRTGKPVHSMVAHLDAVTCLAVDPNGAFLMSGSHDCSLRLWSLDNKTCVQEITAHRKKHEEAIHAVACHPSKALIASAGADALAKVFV
UniProt Q86Y82: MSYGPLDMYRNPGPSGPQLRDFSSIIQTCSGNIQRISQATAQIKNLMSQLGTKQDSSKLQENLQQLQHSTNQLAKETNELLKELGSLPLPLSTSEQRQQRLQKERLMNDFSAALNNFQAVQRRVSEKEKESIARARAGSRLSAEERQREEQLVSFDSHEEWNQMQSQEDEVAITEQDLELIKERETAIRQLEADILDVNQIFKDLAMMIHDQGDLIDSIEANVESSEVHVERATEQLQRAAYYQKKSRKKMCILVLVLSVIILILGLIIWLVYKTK
UniProt Q13277: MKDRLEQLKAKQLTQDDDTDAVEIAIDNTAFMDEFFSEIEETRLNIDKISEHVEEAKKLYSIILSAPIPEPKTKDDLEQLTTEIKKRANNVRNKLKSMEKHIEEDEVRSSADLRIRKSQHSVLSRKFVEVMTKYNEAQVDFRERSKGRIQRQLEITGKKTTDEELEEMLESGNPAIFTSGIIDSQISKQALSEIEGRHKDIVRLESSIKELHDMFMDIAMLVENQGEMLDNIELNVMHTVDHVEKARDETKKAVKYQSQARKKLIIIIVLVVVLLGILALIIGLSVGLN

[2] = compound: CC1=C(C=C(C=C1)NC(=O)C2=CC(=CC=C2)N(C)C)NC(=O)C3=CC=C(C=C3)O
How it was run: as §1

[3] = compound: CC1=CC=C(C=C1)SC2=C3C=C(SC3=CN=C2)C(=O)N
How it was run: as §1

[4] = compound: CC1=NC(=CC=C1)C2=C(N=C(N2)C(C)(C)C)C3=CC4=NC=CN=C4C=C3
How it was run: as §1

[5] = compound: CCCCN(Cc1ccc(C(=O)NO)cc1)C(=O)Nc1ccccc1 [Nexturastat A]
How it was run: as §1

[6] = compound: CCCS(=O)(=O)Nc1ccc(F)c(C(=O)c2c[nH]c3ncc(-c4ccc(Cl)cc4)cc23)c1F [vemurafenib]
How it was run: as §1

[7] = compound: CCCS(=O)(=O)Nc1ccc(F)c(C(=O)c2c[nH]c3ncc(Cl)cc23)c1F
How it was run: as §1

[8] = compound: CCCc1cc(C)[nH]c(=O)c1CNC(=O)c1cc(-c2ccnc(N3CCN(C)CC3)c2)cc2c1cnn2C(C)C
How it was run: as §1

[9] = compound: CCN(CC)Cc1ccc2cc(COC(=O)Nc3ccc(C(=O)NO)cc3)ccc2c1 [givinostat]
How it was run: as §1

[10] = compound: CCN(CCCOc1ccc2c(Nc3cc(CC(=O)Nc4cccc(F)c4)[nH]n3)ncnc2c1)CCOP(=O)(O)O [barasertib]
How it was run: as §1

[11] = compound: CC[C@@H]1C(=O)N(C)c2cnc(Nc3ccc(C(=O)NC4CCN(C)CC4)cc3OC)nc2N1C1CCCC1
How it was run: as §1

[12] = compound: CC[C@@H]1C(=O)N(C)c2cnc(Nc3ccc(C(=O)N[C@H]4CC[C@H](N5CCN(CC6CC6)CC5)CC4)cc3OC)nc2N1C(C)C [volasertib]
How it was run: as §1

[13] = compound: CC[C@H](C)N1C=C(C2=C(C=C(C=C21)C3=CN=C(C=C3)N4CCNCC4)C(=O)NCC5=C(C=C(NC5=O)C)C)C
How it was run: as §1

[14] = compound: CC[C@H](C)[C@@H](C(=O)N[C@@H]([C@@H](C)O)C(=O)N[C@@H](CC(C)C)C(=O)[C@]1(CO1)C)NC(=O)[C@H]([C@@H](C)CC)N(C)C(=O)C [epoxomicin]
How it was run: as §1

[15] = compound: CCn1c(C(=O)N(C2CC2)C2CC2)cc2c3c(ncn3C)c(Nc3cc(C)n(C)n3)nc21
How it was run: as §1

[16] = compound: CCn1cc(-c2ccnc3[nH]c(-c4cccc(CN(C)C)c4)cc23)c(-c2ccc(NC(=O)N(C)C)cc2)n1
How it was run: as §1

[17] = compound: CN(C)CC(=O)Nc1ccc2[nH]c(=O)c3ccccc3c2c1
How it was run: as §1

[18] = compound: CN(CCOC1=CC=C(C=C1)C[C@H]2C(=O)NC(=O)S2)C3=CC=CC=N3 (racemic) [rosiglitazone]
How it was run: as §1

[19] = compound: CN1CCC(CNc2ccc3ncc(-c4cccc(OC(F)(F)F)c4)n3n2)CC1
How it was run: as §1

[20] = compound: CN1C2=C(C3=C1C(=O)N(N=C3)CC4=CC(=CC=C4)N)SC(=C2)S(=O)C
How it was run: as §1

Measured: log2 fold change

TARDBP (UniProt Q13148)
inactive: [1] -0.014 | [2] -0.03 | [3] -0.004 | [4] -0.109 | [5] 0.108 | [6] 0.058 | [7] 0.06 | [8] 0.103 | [9] 0.033 | [10] 0.087 | [11] -0.008 | [12] -0.267 | [13] 0.012 | [14] -0.092 | [15] -0.214 | [16] 0.073 | [17] -0.067 | [18] 0.021 | [19] -0.018

SYF2 (UniProt O95926)
inactive: [1] 0.03 | [2] 0.049 | [3] -0.063 | [4] -0.133 | [5] -0.015 | [6] -0.071 | [7] -0.134 | [8] -0.008 | [9] 0.031 | [10] -0.083 | [11] 0.196 | [12] 0.174 | [13] -0.096 | [14] 0.129 | [16] 0.068 | [17] -0.044 | [20] 0.039 | [19] 0.187

SYNCRIP isoform 3 (UniProt O60506)
inactive: [1] 0.132 | [2] 0.006 | [3] -0.064 | [4] -0.106 | [5] 0.127 | [6] -0.055 | [7] -0.101 | [8] 0.027 | [9] -0.03 | [10] -0.048 | [11] 0.142 | [12] 0.084 | [13] -0.008 | [14] -0.213 | [15] 0.104 | [16] 0.09 | [17] -0.112 | [18] -0.019 | [20] 0.082 | [19] 0.173

STRN4 isoform 3 (UniProt Q9NRL3)
inactive: [1] -0.059 | [2] 0.01 | [3] -0.013 | [4] 0.007 | [5] -0.024 | [6] 0.059 | [7] -0.021 | [8] 0.012 | [9] -0.016 | [10] 0.099 | [11] -0.05 | [12] -0.084 | [13] -0.017 | [14] 0.072 | [15] -0.001 | [16] -0.135 | [17] 0.006 | [18] 0.024 | [20] -0.038 | [19] -0.056

SYNCRIP (UniProt O60506)
inactive: [1] 0.018 | [2] 0.029 | [3] -0.047 | [4] -0.035 | [5] 0.128 | [6] -0.038 | [7] -0.038 | [8] 0.063 | [9] 0.012 | [10] -0.113 | [11] 0.115 | [12] 0.133 | [13] 0.026 | [14] -0.123 | [15] 0.039 | [16] 0.111 | [17] -0.064 | [18] -0.065 | [20] 0.124 | [19] 0.11

SYNJ2BP-COX16, A0A087WYV9
inactive: [1] 0.036 | [2] -0.028 | [3] -0.078 | [4] -0.034 | [5] 0.083 | [6] 0.004 | [7] -0.006 | [8] -0.028 | [9] -0.054 | [10] -0.024 | [11] -0.001 | [12] 0.032 | [13] 0.01 | [14] -0.061 | [15] 0.014 | [16] 0.085 | [17] -0.015 | [18] -0.014 | [20] 0.054 | [19] -0.002

STX12 (UniProt Q86Y82)
inactive: [1] -0.001 | [2] 0.023 | [3] 0.038 | [4] 0.025 | [5] -0.015 | [6] -0.003 | [7] -0.008 | [8] 0.015 | [9] -0.041 | [10] 0.004 | [11] 0.052 | [12] 0.059 | [13] -0.013 | [14] 0.058 | [15] 0.045 | [16] -0.017 | [17] 0.003 | [18] -0.021 | [20] -0.026 | [19] -0.091

STX3 (UniProt Q13277)
inactive: [1] 0.044 | [2] 0.025 | [3] 0.036 | [4] 0.016 | [5] 0.039 | [6] 0.071 | [7] 0.079 | [8] 0.143 | [9] -0.025 | [10] 0.01 | [11] -0.016 | [12] -0.006 | [13] -0.043 | [14] 0.034 | [15] 0.045 | [16] -0.013 | [17] 0.037 | [18] 0.01 | [20] -0.063 | [19] 0.135

Source: the supplement of paper PMC10849652
